Results published in patent publication EP0292291B1 (UNIVERSITY PATENTS, INC., priority 1987, dated 1988).

Test: general procedure: Boc solid-phase peptide synthesis; p-methylbenzhydrylamine (pMBHA) resin; DCC/HOBt
Details: whole synthesis

Substance | isolated yield [%] | isolated yield (scale 0.5 mmol) [%]
Ac-[Nle⁴, Asp⁵, D-Phe⁷, Dpr¹⁰]-alpha-MSH₄₋₁₀NH₂ | 36 | –
Ac-[Nle⁴, Asp⁵, Lys¹⁰]-alpha-MSH₄₋₁₀NH₂ | 37 | –
Ac-[Nle⁴, Asp⁵, D-Phe⁷, Dab¹⁰]-alpha-MSH₄₋₁₀NH₂ | 36 | –
Ac-[Nle⁴, Lys¹⁰]-alpha-MSH₄₋₁₀NH₂ | 40 | –
Ac-[Nle⁴, D-Phe⁷, Lys¹⁰, Gly¹¹]-alpha-MSH₄₋₁₃NH₂ | – | 22
